For at least one entry, the source does not settle the construct or the ends of the probe.
Columns and labels:
[1] = biological target: CRP (cAMP binding protein, catabolite activator protein) (UniProt P0ACJ8); test: SELEX; conditions: five Spacer18 linkers to 3' signaling oligo on MIS10X3 [strand 1: five Spacer18 linkers between 38 and 39 (left out)]; cAMP required for binding; co-construct during selection; letters built from the parent sequence and the stated change
thrombin = test: binding assay; conditions: single-stranded DNA, letters built from the parent sequence and the stated change
[2] = five Spacer18 linkers between signaling oligo and aptamer [5' fluorescein, (Spacer18)5 linker between 7 and 8 (left out)], FRET biosensor paired with THR27, 20 or 100 nM sensor, label: 5' fluorescein

## AACGCAATAAATGTGAAGTAGATCACATTTTAGGCACCGATGGCT / GGTGCCTAAAATGTGATCTACTTCACATTTATTGCGTT [MIS10X3/MIS11 CRP site duplex]
[1]
  selection result: selected

## AGATGCGAGGTTGGGGGTACTAGGTATCAATGGGTAGGGTGGTGTAACGC [THR35]
thrombin; [2]
  binding result: binds

## AGATGCGAGTCCGTGGTAGGGCAGGTTGGGGTGACT [THR21 (60-18 [29] aptamer construct)]
thrombin; five Spacer18 linkers [5' fluorescein at 1, five Spacer18 linkers between 7 and 8 (left out)], FRET comparison biosensor paired with THR27, label: 5' fluorescein
  binding result: binds

## AGATGCGAGTGAAGGTTGGGGGTACTAGGTATCAATGGGTAGGGTGGTGTAACGCCATAT [THR36]
thrombin; [2]
  binding result: binds

## GGTTGGTGTGGTTGGTCGCATCT [THR27 (G15D construct)]
thrombin; five Spacer18 linkers, C6 amino-dT [five Spacer18 linkers between 15 and 16 (left out), 16 = C6 amino-dT], FRET biosensor paired with THR35, THR36 or THR21, label: Texas Red
  binding result: binds
